# Laboratory results published in PubChem BioAssay AID540276 (National Center for Advancing Translational Sciences (NCATS), 2011).
# Out of some 300,000 compounds screened, about 5,400 (1.8%) were called active. The shares of active, inactive and inconclusive entries below differ from those in the screen. Calls come from the whole dose curve; tested in HEK293 cells. Potencies beside an inconclusive call are fits to weak or partial responses and may not hold up.
# Test: qHTS for inhibitors of binding or entry into cells for Marburg Virus
# Conditions: Marburg virus pseudotyped entry inhibition, cell reporter; series mostly up to 37.8 µM
# Potency is the fitted concentration of half-maximal effect.
row,Structure (SMILES),Potency
1,CC(=O)NNc1nc2ccccc2s1,inactive
2,Nc1c(C(=O)NCc2ccc3c(c2)OCO3)nnn1-c1ccc(OC(F)(F)F)cc1,"inconclusive: 32.6 µM [inhibitor, single point]"
3,Cc1ccc(C)c(S(=O)(=O)NCc2ccc(C(=O)N3CCC(Cc4ccccc4)CC3)cc2)c1,"inconclusive: 23.1 µM [inhibitor, partial curve, poor fit]"
4,CCOc1ccc2nc(SCC(=O)NC3CCCCC3)[nH]c2c1,active: 10 µM
5,CCCCCCCc1cc2ccccc2c2c(C(C)=O)c(-c3ccccc3)c(C(=O)OC)n12,inactive
6,CC(c1cccs1)N(Cc1ccco1)C(=O)Nc1ccc(Cl)c(Cl)c1 (stereo not given),"inconclusive: 25.9 µM [inhibitor, partial curve, poor fit]"
7,COc1cc(C(=O)N2CCN(CCc3ccccn3)CC2)cc(OC)c1OC,"inconclusive: 0.631 µM [activator, full curve, poor fit]"
8,COc1ccc(NC(=O)C2CCC(=O)N2)cc1 (stereo not given),"inconclusive: 0.092 µM [activator, single point]"
9,Cc1onc(-c2c(Cl)cccc2Cl)c1C(=O)c1c[nH]c(C(=O)NCC2CCCO2)c1 (stereo not given),"inconclusive: 35.5 µM [inhibitor, single point]"
10,CCc1nc(Nc2ccccc2)c2oc3ccccc3c2n1,inactive
11,CC(=O)N1CCc2cc(S(=O)(=O)Nc3ccc(C)cc3)ccc21,"inconclusive: 17.8 µM [inhibitor, single point]"
12,CCC(C)NC(=O)c1ccc2nc(Cc3ccc(OC)cc3)oc2c1 (stereo not given),inactive
13,COc1ccc2cc(C3(C)NC(=O)N(CC(=O)N4CCCCC4)C3=O)ccc2c1 (stereo not given),"inconclusive: 12.6 µM [activator, single point]"
14,Cc1nnsc1SCC(=O)O,inactive
15,Cc1cccn2c(=O)c3cc(S(=O)(=O)c4ccccc4)c(=N)n(Cc4cccnc4)c3nc12,inactive
16,CCOc1ccc(N(CC(=O)NC2CC3CCC2C3)S(=O)(=O)c2ccccc2)cc1 (stereo not given),"inconclusive: 11.2 µM [inhibitor, single point]"
17,COc1ccc(NC(=O)CSCc2cnn(-c3ccccc3)c2-n2cccc2)cc1,inactive
18,CSc1ccc(CN2CCN(C3CCCC3)C(CCO)C2)cc1 (stereo not given),"inconclusive: 7.08 µM [inhibitor, partial curve, poor fit]"
19,CCOC(=O)C(C)S(=O)(=O)c1ccc(C(F)(F)F)cn1 (stereo not given),inactive
20,Cc1nn(-c2ccccc2)c2[nH]c(=O)c(CNCc3ccc4c(c3)OCO4)cc12,"inconclusive: 3.98 µM [inhibitor, full curve, poor fit]"
21,O=C1CC(SCCc2nc3ccccc3[nH]2)C(=O)N1c1ccc(F)c(Cl)c1 (stereo not given),inactive
22,O=c1[nH][nH]cc1C=Nc1ccccc1O,"inconclusive: 29.1 µM [inhibitor, single point]"
23,Cc1ccc(N2C(=O)c3[nH]nc(-c4ccc(Cl)cc4)c3C2c2ccc(F)cc2)cc1 (stereo not given),"inconclusive: 35.5 µM [inhibitor, single point]"

row,Structure (SMILES),Potency
1,CCc1ccccc1NC(=O)C1C(c2ccccc2)C1(Cl)Cl (stereo not given),"inconclusive: 3.66 µM [inhibitor, partial curve, poor fit]"
2,CCC1(c2ccccc2)NC(=O)N(CC(=O)Nc2ccc(Cl)c(S(=O)(=O)N3CCCCC3)c2)C1=O (stereo not given),"inconclusive: 8.91 µM [inhibitor, partial curve]"
3,COc1ccc(OC)c(NC(=O)c2ccc(OC3CSC3)cc2)c1,inactive
4,CS(=O)(=O)n1nc(OC(=O)c2cccc3ccccc23)cc1N,inactive
5,COCCN1CCN(c2c3c(nc4cc(-c5cccc(F)c5)nn24)CCC3)CC1,inactive
6,Brc1ccccc1/C=N/N1CCCCC1,"inconclusive: 20 µM [activator, single point]"
7,COc1cccc(C(=O)Nc2ccc(-c3cn4cccnc4n3)cc2)c1OC,"inconclusive: 17.8 µM [inhibitor, partial curve, poor fit]"
8,COc1ccc(NC(=O)CCC(=O)c2cccs2)cc1S(=O)(=O)Nc1ccc(Cl)cc1,inactive
9,COc1ccc(/C=C2\CCCC3C2=NN(C(=O)c2ccco2)C3c2ccc(OC)c(OC)c2)cc1OC (stereo not given),"inconclusive: 35.5 µM [inhibitor, single point]"
10,Nc1[nH]ncc1S(=O)(=O)c1ccccc1,"inconclusive: 5.62 µM [activator, single point]"
11,CCOC(=O)C(C(=O)Nc1nc2ccccc2s1)C1CCCCC1 (stereo not given),"inconclusive: 18.3 µM [inhibitor, partial curve, poor fit]"
12,O=C(CN1CCN(Cc2ccccc2)CC1)N/N=C/c1c[nH]c2ccccc12,"inconclusive: 35.5 µM [inhibitor, single point]"
13,COC(=O)CCc1c(C)[nH]c(C(=O)OCc2ccccc2)c1C,inactive
14,O=C(NCc1cccnc1)c1ccc(-c2cc(Cl)ccc2Cl)o1,"inconclusive: 4.61 µM [inhibitor, full curve, poor fit]"
15,Cc1ccnc(NC(=O)c2cccc(NC(=O)Cc3ccccc3)c2)c1,"inconclusive: 17.8 µM [inhibitor, partial curve]"
16,CCOc1ccc(/C=C\C(C)=N\O)cc1,"inconclusive: 29.1 µM [inhibitor, single point]"
17,CCOC(=O)c1sc(=S)n(-c2ccc(OC)cc2)c1N,inactive
18,CCOC(=O)c1c(-c2ccc(F)cc2)csc1NC(=O)C1CCCO1 (stereo not given),inactive
19,CSc1nnc(NC(=O)c2nc(S(=O)(=O)Cc3ccccc3)ncc2Cl)s1,"inconclusive: 35.5 µM [inhibitor, single point]"
20,COc1cc(C(=O)NCCNC(=O)c2cc(OC)c(C)c(OC)c2)cc(OC)c1C,"inconclusive: 35.5 µM [activator, single point]"
21,Cc1ccc2oc(C(=O)N3CCN(CCO)CC3)c(C)c2c1,"inconclusive: 2.51 µM [inhibitor, single point]"
22,Cn1c(=O)n(C/C=C/c2ccccc2)c(=O)c2c1nc1n2CCCN1c1ccc(F)cc1,"inconclusive: 18.3 µM [inhibitor, single point]"

# Ordered by number of heavy atoms (rising): some entries from above.
row,Structure (SMILES),Potency
6,Brc1ccccc1/C=N/N1CCCCC1,"inconclusive: 20 µM [activator, single point]"
14,O=C(NCc1cccnc1)c1ccc(-c2cc(Cl)ccc2Cl)o1,"inconclusive: 4.61 µM [inhibitor, full curve, poor fit]"
11,CCOC(=O)C(C(=O)Nc1nc2ccccc2s1)C1CCCCC1 (stereo not given),"inconclusive: 18.3 µM [inhibitor, partial curve, poor fit]"
